Measurements: the supplement of paper PMC10849652
This is one part of the list.

By UniProt entry, the sequences of proteins in these tests, tags left out. Where a name states a change or a piece, a line headed by the entry shows the natural chain unless it says otherwise.
UniProt Q9BQ52: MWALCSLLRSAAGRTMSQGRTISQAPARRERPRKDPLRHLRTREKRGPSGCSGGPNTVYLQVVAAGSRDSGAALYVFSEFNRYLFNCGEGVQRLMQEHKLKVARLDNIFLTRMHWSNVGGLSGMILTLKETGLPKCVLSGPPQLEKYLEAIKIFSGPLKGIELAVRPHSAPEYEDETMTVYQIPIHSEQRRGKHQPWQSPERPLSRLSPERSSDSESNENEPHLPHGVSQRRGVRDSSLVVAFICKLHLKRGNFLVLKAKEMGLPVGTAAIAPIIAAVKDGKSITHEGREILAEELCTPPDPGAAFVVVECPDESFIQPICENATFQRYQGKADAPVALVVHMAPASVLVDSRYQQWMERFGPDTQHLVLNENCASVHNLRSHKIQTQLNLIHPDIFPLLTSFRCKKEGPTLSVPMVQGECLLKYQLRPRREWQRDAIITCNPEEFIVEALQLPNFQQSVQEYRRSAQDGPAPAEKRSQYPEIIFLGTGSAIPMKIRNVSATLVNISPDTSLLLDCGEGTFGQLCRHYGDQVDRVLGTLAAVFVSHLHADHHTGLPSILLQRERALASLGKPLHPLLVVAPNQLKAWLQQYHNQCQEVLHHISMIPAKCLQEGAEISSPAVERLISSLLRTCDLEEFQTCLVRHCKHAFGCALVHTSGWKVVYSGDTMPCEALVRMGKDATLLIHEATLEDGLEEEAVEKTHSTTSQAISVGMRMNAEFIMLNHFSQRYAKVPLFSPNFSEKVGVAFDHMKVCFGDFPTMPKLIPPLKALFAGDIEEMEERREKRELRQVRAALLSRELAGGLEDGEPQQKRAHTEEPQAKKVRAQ
UniProt P06733, whole entry, looked up: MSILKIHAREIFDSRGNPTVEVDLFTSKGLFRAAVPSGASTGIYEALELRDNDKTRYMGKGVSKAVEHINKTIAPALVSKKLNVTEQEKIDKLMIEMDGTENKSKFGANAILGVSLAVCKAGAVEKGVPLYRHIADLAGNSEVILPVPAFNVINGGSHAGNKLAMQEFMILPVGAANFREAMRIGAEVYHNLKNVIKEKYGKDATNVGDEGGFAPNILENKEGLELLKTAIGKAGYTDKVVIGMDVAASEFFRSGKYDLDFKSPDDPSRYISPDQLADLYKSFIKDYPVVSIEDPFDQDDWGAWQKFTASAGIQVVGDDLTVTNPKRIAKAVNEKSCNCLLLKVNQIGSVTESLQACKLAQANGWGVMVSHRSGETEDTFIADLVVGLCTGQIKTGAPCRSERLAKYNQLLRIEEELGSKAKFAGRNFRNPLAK
UniProt Q96EB1: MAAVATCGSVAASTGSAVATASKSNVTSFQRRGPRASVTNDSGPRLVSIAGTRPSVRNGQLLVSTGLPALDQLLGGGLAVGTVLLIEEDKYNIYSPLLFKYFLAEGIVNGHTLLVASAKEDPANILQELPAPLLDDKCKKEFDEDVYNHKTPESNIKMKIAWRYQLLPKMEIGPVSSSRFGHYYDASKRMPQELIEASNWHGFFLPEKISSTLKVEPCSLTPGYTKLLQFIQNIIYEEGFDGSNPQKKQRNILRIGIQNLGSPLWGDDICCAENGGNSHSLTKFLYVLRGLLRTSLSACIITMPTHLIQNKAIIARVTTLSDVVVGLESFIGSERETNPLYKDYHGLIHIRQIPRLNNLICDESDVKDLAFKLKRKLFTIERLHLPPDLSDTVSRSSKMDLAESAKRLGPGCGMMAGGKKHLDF
UniProt P05198, whole entry, looked up: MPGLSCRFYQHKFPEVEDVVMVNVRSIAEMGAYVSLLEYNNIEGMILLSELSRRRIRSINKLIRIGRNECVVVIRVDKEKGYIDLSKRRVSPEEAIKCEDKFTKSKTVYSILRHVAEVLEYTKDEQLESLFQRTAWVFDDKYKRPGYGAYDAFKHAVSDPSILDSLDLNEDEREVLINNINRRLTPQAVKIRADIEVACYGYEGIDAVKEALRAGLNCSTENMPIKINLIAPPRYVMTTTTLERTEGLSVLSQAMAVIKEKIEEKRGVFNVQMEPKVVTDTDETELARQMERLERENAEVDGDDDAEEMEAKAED
UniProt Q96KQ7: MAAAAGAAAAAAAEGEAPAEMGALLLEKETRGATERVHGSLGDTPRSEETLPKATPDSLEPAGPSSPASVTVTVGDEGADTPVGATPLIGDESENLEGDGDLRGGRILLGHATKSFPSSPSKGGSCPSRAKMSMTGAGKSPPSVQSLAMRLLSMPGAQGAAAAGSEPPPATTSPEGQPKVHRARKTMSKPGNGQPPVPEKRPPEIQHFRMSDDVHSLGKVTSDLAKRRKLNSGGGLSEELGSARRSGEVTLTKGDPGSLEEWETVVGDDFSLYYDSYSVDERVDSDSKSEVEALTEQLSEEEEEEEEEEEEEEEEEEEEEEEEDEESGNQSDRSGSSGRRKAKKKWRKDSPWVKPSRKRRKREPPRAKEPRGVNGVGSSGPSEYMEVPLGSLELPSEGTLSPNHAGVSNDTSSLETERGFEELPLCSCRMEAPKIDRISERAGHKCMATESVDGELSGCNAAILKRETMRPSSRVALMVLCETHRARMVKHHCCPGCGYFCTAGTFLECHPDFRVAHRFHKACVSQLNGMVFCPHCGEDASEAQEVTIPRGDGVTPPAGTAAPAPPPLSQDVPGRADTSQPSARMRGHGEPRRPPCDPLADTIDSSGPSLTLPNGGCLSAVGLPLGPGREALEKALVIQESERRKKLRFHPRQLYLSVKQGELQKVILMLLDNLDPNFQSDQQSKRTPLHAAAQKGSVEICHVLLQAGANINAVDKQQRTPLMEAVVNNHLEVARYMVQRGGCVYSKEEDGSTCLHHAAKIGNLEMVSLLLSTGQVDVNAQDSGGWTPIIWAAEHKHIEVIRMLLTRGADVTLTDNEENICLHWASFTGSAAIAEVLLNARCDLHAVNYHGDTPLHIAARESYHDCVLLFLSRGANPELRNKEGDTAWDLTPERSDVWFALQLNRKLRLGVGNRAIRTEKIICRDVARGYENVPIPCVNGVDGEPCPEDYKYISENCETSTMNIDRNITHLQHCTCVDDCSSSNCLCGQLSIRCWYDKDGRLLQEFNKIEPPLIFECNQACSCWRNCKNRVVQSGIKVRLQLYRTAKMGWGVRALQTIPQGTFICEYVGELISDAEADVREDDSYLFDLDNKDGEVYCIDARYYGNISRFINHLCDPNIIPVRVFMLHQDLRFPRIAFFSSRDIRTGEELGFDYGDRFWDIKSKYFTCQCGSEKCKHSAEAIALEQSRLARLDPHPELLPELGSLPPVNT
UniProt P49770: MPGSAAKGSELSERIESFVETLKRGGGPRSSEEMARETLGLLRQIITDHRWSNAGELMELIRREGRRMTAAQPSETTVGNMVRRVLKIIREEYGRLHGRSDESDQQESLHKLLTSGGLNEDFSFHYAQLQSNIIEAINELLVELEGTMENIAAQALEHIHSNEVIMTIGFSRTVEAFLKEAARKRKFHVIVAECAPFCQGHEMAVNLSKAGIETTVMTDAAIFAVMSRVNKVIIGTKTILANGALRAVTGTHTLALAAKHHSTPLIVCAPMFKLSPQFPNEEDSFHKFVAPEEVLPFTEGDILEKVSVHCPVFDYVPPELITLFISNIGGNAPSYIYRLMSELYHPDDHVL
UniProt Q9NPA8: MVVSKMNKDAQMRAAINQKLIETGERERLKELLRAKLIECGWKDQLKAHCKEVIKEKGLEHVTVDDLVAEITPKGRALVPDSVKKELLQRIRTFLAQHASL
UniProt Q5J8M3, whole entry, looked up: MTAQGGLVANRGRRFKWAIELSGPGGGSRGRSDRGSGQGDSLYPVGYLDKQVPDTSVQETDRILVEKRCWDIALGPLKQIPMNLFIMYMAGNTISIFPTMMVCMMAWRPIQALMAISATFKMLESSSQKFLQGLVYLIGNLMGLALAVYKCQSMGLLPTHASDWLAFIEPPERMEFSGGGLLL
UniProt P23588, whole entry, looked up: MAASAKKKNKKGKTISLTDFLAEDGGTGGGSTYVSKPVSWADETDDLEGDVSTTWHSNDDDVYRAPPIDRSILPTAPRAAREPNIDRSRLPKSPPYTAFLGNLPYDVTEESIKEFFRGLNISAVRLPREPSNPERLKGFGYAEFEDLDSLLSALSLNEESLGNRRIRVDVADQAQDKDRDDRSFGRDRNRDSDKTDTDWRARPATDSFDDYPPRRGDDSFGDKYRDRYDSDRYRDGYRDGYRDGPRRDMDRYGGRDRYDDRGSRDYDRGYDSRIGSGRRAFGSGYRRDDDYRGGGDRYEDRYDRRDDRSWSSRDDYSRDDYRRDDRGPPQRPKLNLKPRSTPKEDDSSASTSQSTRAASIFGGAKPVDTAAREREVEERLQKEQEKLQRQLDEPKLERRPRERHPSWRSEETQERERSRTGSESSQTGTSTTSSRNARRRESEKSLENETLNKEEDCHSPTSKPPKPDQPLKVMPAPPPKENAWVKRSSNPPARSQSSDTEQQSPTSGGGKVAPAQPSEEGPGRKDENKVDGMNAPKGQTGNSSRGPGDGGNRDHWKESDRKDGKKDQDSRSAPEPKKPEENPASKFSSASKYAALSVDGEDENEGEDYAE
UniProt Q99613, whole entry, looked up: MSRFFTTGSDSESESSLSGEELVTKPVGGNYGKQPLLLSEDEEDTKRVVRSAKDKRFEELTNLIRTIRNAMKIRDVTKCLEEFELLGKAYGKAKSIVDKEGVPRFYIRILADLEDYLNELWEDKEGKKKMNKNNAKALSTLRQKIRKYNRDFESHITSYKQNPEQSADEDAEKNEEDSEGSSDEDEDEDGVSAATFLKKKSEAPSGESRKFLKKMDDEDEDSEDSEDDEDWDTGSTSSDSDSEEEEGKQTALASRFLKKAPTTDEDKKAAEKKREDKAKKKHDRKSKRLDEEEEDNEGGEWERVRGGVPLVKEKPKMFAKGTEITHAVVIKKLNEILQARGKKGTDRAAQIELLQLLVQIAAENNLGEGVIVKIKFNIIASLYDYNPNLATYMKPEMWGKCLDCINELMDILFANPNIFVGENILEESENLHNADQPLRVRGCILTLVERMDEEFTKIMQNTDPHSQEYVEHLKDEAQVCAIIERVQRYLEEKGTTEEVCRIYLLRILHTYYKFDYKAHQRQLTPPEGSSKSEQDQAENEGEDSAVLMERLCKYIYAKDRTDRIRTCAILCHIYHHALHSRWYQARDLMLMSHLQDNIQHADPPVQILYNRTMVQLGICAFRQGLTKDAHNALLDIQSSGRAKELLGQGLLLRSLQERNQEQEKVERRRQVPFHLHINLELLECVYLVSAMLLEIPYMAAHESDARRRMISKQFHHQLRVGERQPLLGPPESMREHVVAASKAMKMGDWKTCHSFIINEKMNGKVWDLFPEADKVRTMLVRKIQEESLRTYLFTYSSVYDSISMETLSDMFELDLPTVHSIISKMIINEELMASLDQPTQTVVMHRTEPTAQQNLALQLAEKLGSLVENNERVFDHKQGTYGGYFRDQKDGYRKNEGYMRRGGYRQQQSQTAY
UniProt Q32P44: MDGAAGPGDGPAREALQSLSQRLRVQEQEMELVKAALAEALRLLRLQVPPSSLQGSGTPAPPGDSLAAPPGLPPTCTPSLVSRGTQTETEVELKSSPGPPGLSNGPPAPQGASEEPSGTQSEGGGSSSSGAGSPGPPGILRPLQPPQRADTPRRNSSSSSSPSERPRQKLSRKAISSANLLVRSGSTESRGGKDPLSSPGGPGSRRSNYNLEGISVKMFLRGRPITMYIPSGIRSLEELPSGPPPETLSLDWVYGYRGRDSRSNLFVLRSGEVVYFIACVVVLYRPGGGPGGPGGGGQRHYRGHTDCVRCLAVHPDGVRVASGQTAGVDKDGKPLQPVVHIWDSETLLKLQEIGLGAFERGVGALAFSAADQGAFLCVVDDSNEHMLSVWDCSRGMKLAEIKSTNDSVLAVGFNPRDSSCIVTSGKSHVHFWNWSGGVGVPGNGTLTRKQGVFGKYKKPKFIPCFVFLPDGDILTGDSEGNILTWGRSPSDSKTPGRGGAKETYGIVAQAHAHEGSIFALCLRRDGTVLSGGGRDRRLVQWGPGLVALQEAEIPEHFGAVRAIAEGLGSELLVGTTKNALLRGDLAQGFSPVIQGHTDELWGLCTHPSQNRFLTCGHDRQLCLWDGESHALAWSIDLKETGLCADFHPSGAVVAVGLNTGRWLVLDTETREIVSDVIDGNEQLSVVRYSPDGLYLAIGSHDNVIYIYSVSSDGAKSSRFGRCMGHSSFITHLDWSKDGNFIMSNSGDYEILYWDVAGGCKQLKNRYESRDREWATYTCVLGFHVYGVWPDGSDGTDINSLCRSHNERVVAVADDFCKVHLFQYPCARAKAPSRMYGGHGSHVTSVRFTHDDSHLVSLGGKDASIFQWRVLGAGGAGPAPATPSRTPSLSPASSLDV

Key:
Assay in all cases: log2 fold change, soluble protein after heating vs DMSO (PISA); higher = thermal stabilisation; K562 cells, 10 uM, 30 min; active = over 0.2 and 3.5 SD of the protein, either way, in both replicates (recomputed)
[1] = compound: NC(=O)Nc1cc(-c2cccc(F)c2)sc1C(=O)N[C@H]1CCCNC1
In short: (§1)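 K562 cells at 2×10^6 cells/mL were treated with 10 μM compound for 30 min. Aliquots were heated for 3 min across 48°C-58°C, pooled, and extracted in PBS with 0.5% NP-40 at 4°C; soluble protein was the supernatant after 21,000xg for 90 min. Soluble protein was quantified by TMTpro 16plex LC-MS/MS with channel sums equalised, and reported as log2 fold change in thermal stability against DMSO controls, with values from duplicates.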

[2] = compound: NC(=O)c1cnc(N[C@@H]2CCCC[C@@H]2N)nc1Nc1cccc(-n2nccn2)c1
In short: as §1

[3] = compound: NC1(c2ccc(-c3nc4ccn5c(=O)[nH]nc5c4cc3-c3ccccc3)cc2)CCC1
In short: as §1

[4] = compound: NCC(=O)Nc1ccc(-n2nc(C(F)(F)F)cc2-c2ccc3c(ccc4ccccc43)c2)cc1
In short: as §1

entinostat = compound: Nc1ccccc1NC(=O)c1ccc(CNC(=O)OCc2cccnc2)cc1 [entinostat]
In short: as §1

vorinostat = compound: O=C(CCCCCCC(=O)Nc1ccccc1)NO [vorinostat]
In short: as §1

citarinostat = compound: O=C(CCCCCCNC(=O)c1cnc(N(c2ccccc2)c2ccccc2Cl)nc1)NO [citarinostat]
In short: as §1

silmitasertib = compound: O=C(O)c1ccc2c(c1)nc(Nc1cccc(Cl)c1)c1ccncc12 [silmitasertib]
In short: as §1

[5] = compound: O=C1NC(=O)C(c2cnc3ccccn23)=C1c1cn2c3c(cc(F)cc13)CN(C(=O)N1CCCCC1)CC2
In short: as §1

[6] = compound: c1cc(OCCN2CCCCC2)cc(-c2n[nH]c3ccc(-c4nnc[nH]4)cc23)c1
In short: as §1

entospletinib = compound: c1cn2cc(-c3ccc4cn[nH]c4c3)nc(Nc3ccc(N4CCOCC4)cc3)c2n1 [entospletinib]
In short: as §1

Measured: log2 fold change

ELAC2 (UniProt Q9BQ52)
inactive: [1] -0.035 | [2] 0.008 | [3] -0.029 | [4] 0.02 | entinostat -0.038 | vorinostat -0.089 | citarinostat -0.001 | silmitasertib 0.004 | [5] -0.021 | [6] -0.02 | entospletinib 0.029

ENO1 (UniProt P06733)
inactive: [1] -0.017 | [2] 0.017 | [3] 0.092 | [4] 0.011 | entinostat -0.034 | vorinostat -0.036 | citarinostat -0.017 | silmitasertib -0.024 | [5] -0.035 | [6] 0.011 | entospletinib 0.022

ELP4 isoform 3 (UniProt Q96EB1)
inactive: [1] 0.001 | [2] 0.037 | [3] -0.013 | [4] 0.006 | entinostat -0.038 | vorinostat 0.009 | citarinostat 0.043 | silmitasertib 0.005 | [5] 0.003 | [6] -0.048 | entospletinib 0.006

EIF2S1 (UniProt P05198)
inactive: [1] -0.005 | [2] 0.04 | [3] 0.089 | [4] 0.012 | entinostat -0.02 | vorinostat 0.031 | citarinostat -0.016 | silmitasertib 0.012 | [5] 0.084 | [6] -0.02 | entospletinib -0.015

EHMT2 (UniProt Q96KQ7)
inactive: [1] -0.023 | [2] -0.098 | [3] -0.087 | [4] -0.004 | entinostat -0.044 | vorinostat 0.07 | citarinostat -0.101 | silmitasertib 0.001 | [5] 0.091 | [6] -0.072 | entospletinib 0.061

ELP4 (UniProt Q96EB1)
inactive: [1] -0.031 | [2] 0.073 | [3] -0.028 | [4] -0.077 | entinostat -0.026 | vorinostat -0.005 | citarinostat -0.004 | silmitasertib -0.046 | [5] 0.011 | [6] -0.051 | entospletinib -0.027

EIF2B2 (UniProt P49770)
inactive: [1] -0.017 | [2] 0.004 | [3] -0.002 | [4] 0.024 | entinostat -0.034 | vorinostat 0.027 | citarinostat 0.032 | silmitasertib 0.016 | [5] 0.02 | [6] -0.064 | entospletinib 0.04

ENY2 (UniProt Q9NPA8)
inactive: [1] -0.017 | [2] -0.011 | [3] 0.011 | [4] -0.009 | entinostat 0.002 | vorinostat 0 | citarinostat 0.096 | silmitasertib -0.036 | [5] -0.023 | [6] 0.047 | entospletinib 0.169

EMC4 (UniProt Q5J8M3)
inactive: [1] -0.042 | [2] 0.019 | [3] -0.056 | [4] 0.009 | entinostat -0.029 | vorinostat -0.069 | citarinostat 0.059 | silmitasertib -0.007 | [5] -0.067 | [6] -0.046 | entospletinib -0.002

EIF4B (UniProt P23588)
inactive: [1] -0.003 | [2] 0.009 | [3] 0.035 | [4] -0.01 | entinostat -0.006 | vorinostat -0.04 | citarinostat -0.028 | silmitasertib -0.013 | [5] -0.046 | [6] 0.053 | entospletinib 0.015

Reprinted from above (two entries):
ENO1 (UniProt P06733)
inactive: [1] -0.017 | [2] 0.017 | [3] 0.092 | [4] 0.011 | entinostat -0.034 | vorinostat -0.036 | citarinostat -0.017 | silmitasertib -0.024 | [5] -0.035 | [6] 0.011 | entospletinib 0.022

ELP4 isoform 3 (UniProt Q96EB1)
inactive: [1] 0.001 | [2] 0.037 | [3] -0.013 | [4] 0.006 | entinostat -0.038 | vorinostat 0.009 | citarinostat 0.043 | silmitasertib 0.005 | [5] 0.003 | [6] -0.048 | entospletinib 0.006

Next entries follow.

EIF3C (UniProt Q99613)
inactive: [1] -0.101 | [2] -0.077 | [3] -0.056 | [4] -0.039 | entinostat 0.047 | vorinostat 0.111 | citarinostat 0.032 | silmitasertib 0.098 | [5] 0.168 | [6] -0.131 | entospletinib 0.032

EML3 (UniProt Q32P44)
inactive: [1] 0.006 | [2] 0.041 | [3] 0.118 | entinostat 0.018 | vorinostat -0.018 | citarinostat 0.12 | silmitasertib 0.055 | [5] 0.002 | [6] -0.19 | entospletinib 0.28
